{"source": "patent US20260166182A1", "about": "“CYANINE-BASED FLUOROPHORES” (The General Hospital Corporation, priority 2022, published 2026)", "test": "Photostability under xenon lamp irradiation", "type": "physicochemical", "conditions": "ethanol, xenon lamp 150 W, end of 2 h", "experimental": "Optical Study, Photostability, Physicochemical Properties, and DFT Calculation: 1 mM stock solution in DMSO of the synthesized fluorophores was prepared before starting any spectral measurement. Optical properties for the synthesized fluorophores were measured in four different solvents (EtOH, DMSO, HEPES, and PBS). Absorbance spectra were measured in a Varian Cary 50 absorbance spectrophotometer (190-1100 nm). Fluorescence emission and photostability were measured and emission spectra were recorded on a Shimadzu RF-5301PC spectrofluorometer. […] Theoretical calculations of frontier molecular orbitals (FMOs) for the optimized structures of selected fluorophores were calculated based on DFT calculations at the B3LYP/6-311G(d,p) level.\nIn consideration of theranostic (therapeutics and diagnostic) applications, NIR cyanine fluorophores are synthesized for fluorescence imaging, photodynamic therapy (PDT), photothermal therapy (PTT), optoacoustic imaging, and cancer immunotherapy. […] The power density of 150 W is much higher than the required power for fluorescence imaging, considering that the time it takes for a fluorophore to clear from the background and accumulate in sufficient quantities in the targeted tissues is unknown. […] Photodegradation rates were measured every 20 min intervals for the selected fluorophores based on the % reduced fluorescence intensity starting from 100%. […]", "note": "Some results were stated once for a whole list of compounds, not compound by compound.", "data": [{"molecule": "CCCCN1/C(=C/C=C2\\CCCC(/C=C/C3=[N+](CCCC)c4ccc(Br)cc4C3(C)C)=C2Cl)C(C)(C)c2cc(Br)ccc21.[I-]", "note": "[fluorophore 20, 5-Bromo-2-((E)-2-((E)-3-(2-((E)-5-bromo-1-butyl-3,3-dimethylindolin-2-ylidene)ethylidene)-2-chlorocyclohex-1-en-1-yl)vinyl)-1-butyl-3,3-dimethyl-3H-indol-1-ium Iodide]", "values": [{"measurement": "photodegradation (% reduced fluorescence intensity)", "result": "7-12%"}]}]}
